PubChem BioAssay AID686943 | Drosophila RNAi Screening Center, 2013
Screen: 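Knockdowns that increase or decrease active ERK after insulin receptor stimulation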 (primary screen). System: Drosophila S2R+ haemocyte-like cells expressing YFP-tagged ERK (Rolled). Reagent: long dsRNA against Drosophila genes. Challenge: insulin stimulation versus unstimulated cells; dose and duration not given. Read-out: 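Per-plate z-scores of phospho-ERK immunostaining normalised to YFP-tagged ERK, measured with and without insulin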. Scale: replicate 1, z-score of dpERK with insulin: higher = more active ERK per ERK-YFP after insulin.
The screen tested about 23,000 reagents; this is an unselected part of those that have a named target and a result. 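Extra replicates exist only for a retested subset of genes; insulin dose and duration not given; both raised and lowered dpERK matter.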 Not all columns of the deposit are shown. Not given: the amount of reagent, the time to read-out.

{"Target gene": "Or45a", "DRSC id": "DRSC07487", "replicate 1, z-score of dpERK with insulin": -0.02}
{"Target gene": "frtz", "DRSC id": "DRSC00512", "replicate 1, z-score of dpERK with insulin": -0.47}
{"Target gene": "CG8112", "DRSC id": "DRSC16377", "replicate 1, z-score of dpERK with insulin": -0.01}
{"Target gene": "Rpt5", "DRSC id": "DRSC16842", "replicate 1, z-score of dpERK with insulin": -5.88}
{"Target gene": "CG5543", "DRSC id": "DRSC04511", "replicate 1, z-score of dpERK with insulin": 0.94}
{"Target gene": "CG12795", "DRSC id": "DRSC00354", "replicate 1, z-score of dpERK with insulin": 0.87}
{"Target gene": "CG42382", "DRSC id": "DRSC07671", "replicate 1, z-score of dpERK with insulin": 0.28}
{"Target gene": "mRpL30", "DRSC id": "DRSC18416", "replicate 1, z-score of dpERK with insulin": -0.73}
{"Target gene": "DAT", "DRSC id": "DRSC07394", "replicate 1, z-score of dpERK with insulin": 0.33}
{"Target gene": "CG1637", "DRSC id": "DRSC18865", "replicate 1, z-score of dpERK with insulin": -0.31}
{"Target gene": "CG1637", "DRSC id": "DRSC19748", "replicate 1, z-score of dpERK with insulin": 0.5}
{"Target gene": "CG1637", "DRSC id": "DRSC19749", "replicate 1, z-score of dpERK with insulin": 0.35}
{"Target gene": "CG3528", "DRSC id": "DRSC00611", "replicate 1, z-score of dpERK with insulin": -1.19}
{"Target gene": "asun", "DRSC id": "DRSC16733", "replicate 1, z-score of dpERK with insulin": -0.86}
{"Target gene": "CG30158", "DRSC id": "DRSC04956", "replicate 1, z-score of dpERK with insulin": -0.44}
{"Target gene": "CG30158", "DRSC id": "DRSC04974", "replicate 1, z-score of dpERK with insulin": 0.06}
{"Target gene": "CG30158", "DRSC id": "DRSC04975", "replicate 1, z-score of dpERK with insulin": 0.35}
{"Target gene": "CG30158", "DRSC id": "DRSC05012", "replicate 1, z-score of dpERK with insulin": -0.01}
{"Target gene": "O-fut1", "DRSC id": "DRSC06138", "replicate 1, z-score of dpERK with insulin": 0.02}
{"Target gene": "Plap", "DRSC id": "DRSC00678", "replicate 1, z-score of dpERK with insulin": -0.11}
{"Target gene": "CG8701", "DRSC id": "DRSC07237", "replicate 1, z-score of dpERK with insulin": 0.02}

Reprinted from the listing (2 entries):
{"Target gene": "CG30158", "DRSC id": "DRSC04956", "replicate 1, z-score of dpERK with insulin": -0.44}
{"Target gene": "CG30158", "DRSC id": "DRSC04974", "replicate 1, z-score of dpERK with insulin": 0.06}
